# In the supplement of paper PMC8728848:
# The other results are listed elsewhere or left out.
# B1: CTMLA2 (Anopheles gambiae), Q7Q7F8 (protein)
# chain: MNLMITILIAVITVVRGDLSVPKTVDDILQQNPCLCPCKPFEEKEYFIPISRTSDWFGAVAYCHSVGMELAEVLNEDEARAMGEVIAEEESDSDDEFYWIGANDLGVQGTYRWALAGRPVLYSQWAAGEPNHARGENGQQPAERCVAVAMDKYEWNDFQCTQQKPFICQQFRKH
# Experiments:
# Experiment in all cases: glycan array binding signal (z-score within array); higher = stronger binding
# Details in all cases: glycan notation: IUPAC condensed, linker removed
# [1] = molecular target: Man(a1-3)[Man(a1-6)]Man(a1-6)[Man(a1-3)]Man(b1-4)GlcNAc(b1-4)GlcNAc
# Summary of the method: (§1)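 The binding signal is a Z-score computed within each array and averaged over linkers. Arrays of the same protein sequence at different concentrations or buffers were also averaged together. Data originate from 3228 arrays in the Consortium for Functional Glycomics database, kept only where the protein sequence was available.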
# [2] = molecular target: Man(a1-3)[Man(a1-6)]Man(b1-4)GlcNAc(b1-4)GlcNAc
# Summary of the method: as §1
# [3] = molecular target: Man(b1-4)GlcNAc
# Summary of the method: as §1
# [4] = molecular target: Neu5Ac(a2-3)Gal
# Summary of the method: as §1
# [5] = molecular target: Neu5Ac(a2-3)Gal(b1-3)GalNAc
# Summary of the method: as §1
# [6] = molecular target: Neu5Ac(a2-3)Gal(b1-3)GalNAc(b1-3)Gal(a1-4)Gal(b1-4)Glc
# Summary of the method: as §1
# [7] = molecular target: Neu5Ac(a2-3)Gal(b1-3)GalNAc(b1-3)Gal(b1-4)GlcNAc
# Summary of the method: as §1
# [8] = molecular target: Neu5Ac(a2-3)Gal(b1-3)GalNAc(b1-4)[Neu5Ac(a2-3)]Gal(b1-4)Glc
# Summary of the method: as §1
# [9] = molecular target: Neu5Ac(a2-3)Gal(b1-3)GalNAc6S
# Summary of the method: as §1
# [10] = molecular target: Neu5Ac(a2-3)Gal(b1-3)GlcNAc
# Summary of the method: as §1
# [11] = molecular target: Neu5Ac(a2-3)Gal(b1-3)GlcNAc(b1-3)Gal(b1-3)GlcNAc
# Summary of the method: as §1
# [12] = molecular target: Neu5Ac(a2-3)Gal(b1-3)GlcNAc6S
# Summary of the method: as §1
# [13] = molecular target: Neu5Ac(a2-3)Gal(b1-3)[Fuc(a1-4)]GlcNAc
# Summary of the method: as §1
# [14] = molecular target: Neu5Ac(a2-3)Gal(b1-3)[Fuc(a1-4)]GlcNAc(b1-3)Gal(b1-4)[Fuc(a1-3)]GlcNAc
# Summary of the method: as §1
# [15] = molecular target: Neu5Ac(a2-3)Gal(b1-3)[Neu5Ac(a2-3)Gal(b1-4)]GlcNAc
# Summary of the method: as §1
# [16] = molecular target: Neu5Ac(a2-3)Gal(b1-3)[Neu5Ac(a2-6)]GalNAc
# Summary of the method: as §1
# [17] = molecular target: Neu5Ac(a2-3)Gal(b1-4)Glc
# Summary of the method: as §1
# [18] = molecular target: Neu5Ac(a2-3)Gal(b1-4)GlcNAc
# Summary of the method: as §1
# [19] = molecular target: Neu5Ac(a2-3)Gal(b1-4)GlcNAc(b1-2)Man(a1-3)[Neu5Ac(a2-3)Gal(b1-4)GlcNAc(b1-2)Man(a1-6)]Man(b1-4)GlcNAc(b1-4)GlcNAc
# Summary of the method: as §1
# [20] = molecular target: Neu5Ac(a2-3)Gal(b1-4)GlcNAc(b1-3)Gal(b1-3)GlcNAc
# Summary of the method: as §1
# [21] = molecular target: Neu5Ac(a2-3)Gal(b1-4)GlcNAc(b1-3)Gal(b1-4)GlcNAc
# Summary of the method: as §1
# [22] = molecular target: Neu5Ac(a2-3)Gal(b1-4)GlcNAc(b1-3)Gal(b1-4)GlcNAc(b1-3)Gal(b1-4)GlcNAc
# Summary of the method: as §1
# [23] = molecular target: Neu5Ac(a2-3)Gal(b1-4)GlcNAc(b1-3)Gal(b1-4)[Fuc(a1-3)]GlcNAc
# Summary of the method: as §1
# [24] = molecular target: Neu5Ac(a2-3)Gal(b1-4)GlcNAc(b1-6)[Gal(b1-3)]GalNAc
# Summary of the method: as §1
# [25] = molecular target: Neu5Ac(a2-3)Gal(b1-4)GlcNAc6S
# Summary of the method: as §1
# [26] = molecular target: Neu5Ac(a2-3)Gal(b1-4)[Fuc(a1-3)]GlcNAc
# Summary of the method: as §1
# [27] = molecular target: Neu5Ac(a2-3)Gal(b1-4)[Fuc(a1-3)]GlcNAc(b1-3)Gal
# Summary of the method: as §1
# [28] = molecular target: Neu5Ac(a2-3)Gal(b1-4)[Fuc(a1-3)]GlcNAc(b1-3)Gal(b1-4)GlcNAc
# Summary of the method: as §1
# [29] = molecular target: Neu5Ac(a2-3)Gal(b1-4)[Fuc(a1-3)]GlcNAc(b1-3)Gal(b1-4)[Fuc(a1-3)]GlcNAc(b1-3)Gal(b1-4)[Fuc(a1-3)]GlcNAc
# Summary of the method: as §1
# [30] = molecular target: Neu5Ac(a2-3)Gal(b1-4)[Fuc(a1-3)]GlcNAc6S
# Summary of the method: as §1
# [31] = molecular target: Neu5Ac(a2-3)Gal6S(b1-4)GlcNAc
# Summary of the method: as §1
# [32] = molecular target: Neu5Ac(a2-3)Gal6S(b1-4)[Fuc(a1-3)]GlcNAc
# Summary of the method: as §1
# [33] = molecular target: Neu5Ac(a2-3)GalNAc
# Summary of the method: as §1
# [34] = molecular target: Neu5Ac(a2-3)GalNAc(b1-4)GlcNAc
# Summary of the method: as §1
# [35] = molecular target: Neu5Ac(a2-3)[GalNAc(b1-4)]Gal(b1-4)Glc
# Summary of the method: as §1
# [36] = molecular target: Neu5Ac(a2-3)[GalNAc(b1-4)]Gal(b1-4)GlcNAc
# Summary of the method: as §1
# [37] = molecular target: Neu5Ac(a2-3)[Neu5Ac(a2-6)]GalNAc
# Summary of the method: as §1
# [38] = molecular target: Neu5Ac(a2-6)Gal
# Summary of the method: as §1
# [39] = molecular target: Neu5Ac(a2-6)Gal(b1-4)Glc
# Summary of the method: as §1
# [40] = molecular target: Neu5Ac(a2-6)Gal(b1-4)GlcNAc
# Summary of the method: as §1
# [41] = molecular target: Neu5Ac(a2-6)Gal(b1-4)GlcNAc(b1-3)Gal(b1-4)GlcNAc
# Summary of the method: as §1
# [42] = molecular target: Neu5Ac(a2-6)Gal(b1-4)GlcNAc(b1-3)Gal(b1-4)[Fuc(a1-3)]GlcNAc(b1-3)Gal(b1-4)[Fuc(a1-3)]GlcNAc
# Summary of the method: as §1
# [43] = molecular target: Neu5Ac(a2-6)Gal(b1-4)GlcNAc6S
# Summary of the method: as §1
# [44] = molecular target: Neu5Ac(a2-6)GalNAc
# Summary of the method: as §1
# [45] = molecular target: Neu5Ac(a2-6)GalNAc(b1-4)GlcNAc
# Summary of the method: as §1
# [46] = molecular target: Neu5Ac(a2-8)Neu5Ac
# Summary of the method: as §1
# [47] = molecular target: Neu5Ac(a2-8)Neu5Ac(a2-3)Gal(b1-4)Glc
# Summary of the method: as §1
# [48] = molecular target: Neu5Ac(a2-8)Neu5Ac(a2-3)[GalNAc(b1-4)]Gal(b1-4)Glc
# Summary of the method: as §1
# [49] = molecular target: Neu5Ac(a2-8)Neu5Ac(a2-8)Neu5Ac
# Summary of the method: as §1
# [50] = molecular target: Neu5Ac(a2-8)Neu5Ac(a2-8)Neu5Ac(a2-3)Gal(b1-4)Glc
# Summary of the method: as §1
# [51] = molecular target: Neu5Ac(a2-8)Neu5Ac(a2-8)Neu5Ac(a2-3)[GalNAc(b1-4)]Gal(b1-4)Glc
# Summary of the method: as §1
# [52] = molecular target: Neu5Ac(a2-8)Neu5Ac(a2-8)Neu5Ac(a2-8)Neu5Ac(a2-3)[GalNAc(b1-4)]Gal(b1-4)Glc
# Summary of the method: as §1
# [53] = molecular target: Neu5Ac(b1-6)GalNAc
# Summary of the method: as §1
# [54] = molecular target: Neu5Ac(b2-6)Gal(b1-4)GlcNAc
# Summary of the method: as §1
# [55] = molecular target: Neu5Ac9Ac(a2-6)Gal(b1-4)GlcNAc
# Summary of the method: as §1
# [56] = molecular target: Neu5Gc(a2-3)Gal(b1-3)GlcNAc
# Summary of the method: as §1
# [57] = molecular target: Neu5Gc(a2-3)Gal(b1-3)[Fuc(a1-4)]GlcNAc
# Summary of the method: as §1
# [58] = molecular target: Neu5Gc(a2-3)Gal(b1-4)Glc
# Summary of the method: as §1
# [59] = molecular target: Neu5Gc(a2-3)Gal(b1-4)GlcNAc
# Summary of the method: as §1
# [60] = molecular target: Neu5Gc(a2-3)Gal(b1-4)[Fuc(a1-3)]GlcNAc
# Summary of the method: as §1
# [61] = molecular target: Neu5Gc(a2-6)Gal(b1-4)GlcNAc
# Summary of the method: as §1
# [62] = molecular target: Neu5Gc(a2-6)GalNAc
# Summary of the method: as §1
binder,measurement,setting,value
B1,glycan array binding signal (z-score),[1],0.122
same,glycan array binding signal (z-score),[2],-0.199
same,glycan array binding signal (z-score),[3],-0.189
same,glycan array binding signal (z-score),[4],-0.235
same,glycan array binding signal (z-score),[5],-0.51
same,glycan array binding signal (z-score),[6],-0.274
same,glycan array binding signal (z-score),[7],0.102
same,glycan array binding signal (z-score),[8],-0.414
same,glycan array binding signal (z-score),[9],-0.357
same,glycan array binding signal (z-score),[10],-0.318
same,glycan array binding signal (z-score),[11],-0.281
same,glycan array binding signal (z-score),[12],-0.551
same,glycan array binding signal (z-score),[13],-0.437
same,glycan array binding signal (z-score),[14],-0.129
same,glycan array binding signal (z-score),[15],-0.137
same,glycan array binding signal (z-score),[16],0.141
same,glycan array binding signal (z-score),[17],-0.195
same,glycan array binding signal (z-score),[18],-0.377
same,glycan array binding signal (z-score),[19],0.076
same,glycan array binding signal (z-score),[20],-0.485
same,glycan array binding signal (z-score),[21],0.645
same,glycan array binding signal (z-score),[22],-0.656
same,glycan array binding signal (z-score),[23],0.177
same,glycan array binding signal (z-score),[24],-0.355
same,glycan array binding signal (z-score),[25],-0.26
same,glycan array binding signal (z-score),[26],-0.478
same,glycan array binding signal (z-score),[27],-0.414
same,glycan array binding signal (z-score),[28],0.213
same,glycan array binding signal (z-score),[29],-0.45
same,glycan array binding signal (z-score),[30],-0.172
same,glycan array binding signal (z-score),[31],0.238
same,glycan array binding signal (z-score),[32],-0.274
same,glycan array binding signal (z-score),[33],0.333
same,glycan array binding signal (z-score),[34],0.579
same,glycan array binding signal (z-score),[35],-0.435
same,glycan array binding signal (z-score),[36],-0.181
same,glycan array binding signal (z-score),[37],0.159
same,glycan array binding signal (z-score),[38],-0.594
same,glycan array binding signal (z-score),[39],-0.539
same,glycan array binding signal (z-score),[40],-0.324
same,glycan array binding signal (z-score),[41],-0.452
same,glycan array binding signal (z-score),[42],-0.37
same,glycan array binding signal (z-score),[43],-0.415
same,glycan array binding signal (z-score),[44],-0.299
same,glycan array binding signal (z-score),[45],-0.284
same,glycan array binding signal (z-score),[46],-0.246
same,glycan array binding signal (z-score),[47],-0.35
same,glycan array binding signal (z-score),[48],-0.359
same,glycan array binding signal (z-score),[49],-0.28
same,glycan array binding signal (z-score),[50],-0.285
same,glycan array binding signal (z-score),[51],-0.353
same,glycan array binding signal (z-score),[52],0.117
same,glycan array binding signal (z-score),[53],0.126
same,glycan array binding signal (z-score),[54],-0.492
same,glycan array binding signal (z-score),[55],0.488
same,glycan array binding signal (z-score),[56],-0.162
same,glycan array binding signal (z-score),[57],-0.268
same,glycan array binding signal (z-score),[58],-0.485
same,glycan array binding signal (z-score),[59],-0.221
same,glycan array binding signal (z-score),[60],-0.437
same,glycan array binding signal (z-score),[61],-0.479
same,glycan array binding signal (z-score),[62],-0.317

# As a short view, part of the list above:
binder,measurement,setting,value
B1,glycan array binding signal (z-score),[14],-0.129
same,glycan array binding signal (z-score),[15],-0.137
same,glycan array binding signal (z-score),[16],0.141
same,glycan array binding signal (z-score),[17],-0.195
same,glycan array binding signal (z-score),[18],-0.377
same,glycan array binding signal (z-score),[19],0.076
same,glycan array binding signal (z-score),[20],-0.485
same,glycan array binding signal (z-score),[21],0.645
same,glycan array binding signal (z-score),[22],-0.656
same,glycan array binding signal (z-score),[23],0.177
same,glycan array binding signal (z-score),[24],-0.355
same,glycan array binding signal (z-score),[25],-0.26
same,glycan array binding signal (z-score),[26],-0.478
same,glycan array binding signal (z-score),[27],-0.414
same,glycan array binding signal (z-score),[28],0.213
same,glycan array binding signal (z-score),[29],-0.45
same,glycan array binding signal (z-score),[30],-0.172
